The text below walks through data of PubChem BioAssay AID256 (DTP/NCI, 2004).

The test has as its system CD2F1 mice, L1210 leukemia ip, survival T/C. Put plainly: NCI In Vivo Anticancer Drug Screen. Data for tumor model L1210 Leukemia (intraperitoneal) in CD2F1 (CDF1) mice. Particulars: higher T/C = longer survival. In short, it runs like this: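 Mice carrying a transplanted tumor received test compound or vehicle alone. The value is the measurement in the treated group divided by that in the vehicle-treated control group.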

Setting [1] is: T/C endpoint: mean survival time, dose: 400.0 mg/kg/injection, schedule: Q04DX003 (ip), vehicle: other.
Where [2] appears, read: T/C endpoint: mean survival time, dose: 200.0 mg/kg/injection, schedule: Q04DX002 (ip), vehicle: saline with Tween-80.
Setting [3] is: T/C endpoint: mean survival time, dose: 400.0 mg/kg/injection, schedule: Q04DX002 (ip), vehicle: saline with Tween-80.
Setting [4] is: T/C endpoint: mean survival time, dose: 400.0 mg/kg/injection, schedule: Q01DX009 (ip), vehicle: saline with Tween-80.
Where [5] appears, read: T/C endpoint: mean survival time, dose: 12.5 mg/kg/injection, schedule: Q04DX003 (ip), vehicle: saline.
Where [6] appears, read: T/C endpoint: mean survival time, dose: 100.0 mg/kg/injection, schedule: Q01DX009 (ip), vehicle: saline with Tween-80.
The mark [7] stands for this setting: T/C endpoint: mean survival time, dose: 200.0 mg/kg/injection, schedule: Q01DX009 (ip), vehicle: saline with Tween-80.
Where [8] appears, read: T/C endpoint: mean survival time, dose: 50.0 mg/kg/injection, schedule: Q01DX009 (ip), vehicle: saline with Tween-80.
Setting [9] is: T/C endpoint: mean survival time, dose: 6.25 mg/kg/injection, schedule: Q01DX009 (ip), vehicle: saline with Tween-80.
[10] abbreviates: T/C endpoint: mean survival time, dose: 25.0 mg/kg/injection, schedule: Q04DX002 (ip), vehicle: saline with Tween-80.
Where [11] appears, read: T/C endpoint: mean survival time, dose: 50.0 mg/kg/injection, schedule: Q04DX002 (ip), vehicle: saline with Tween-80.
Setting [12] is: T/C endpoint: mean survival time, dose: 100.0 mg/kg/injection, schedule: Q04DX002 (ip), vehicle: saline with Tween-80.
Where [13] appears, read: T/C endpoint: mean survival time, dose: 25.0 mg/kg/injection, schedule: Q01DX009 (ip), vehicle: saline with Tween-80.
[14] abbreviates: T/C endpoint: mean survival time, dose: 400.0 mg/kg/injection, schedule: Q04DX003 (ip), vehicle: saline with Tween-80.
[15] abbreviates: T/C endpoint: mean survival time, dose: 50.0 mg/kg/injection, schedule: Q01DX009 (ip), vehicle: Klucel (hydroxypropylcellulose) (HPC).

The list shows only some results of the screen, not a fair sample: it gathers tests that were run many times, whatever their T/C, doses with no T/C, and many T/C values between a quarter and a half above the control. Further doses and runs are listed elsewhere. T/C: endpoint of the treated group in % of that of the vehicle group. Some entries give survivors of the animals treated and no T/C: the source files T/C as zero there, which appears to mark a toxic dose or a test without result, not a measured value. Some doses without a T/C left all or most animals alive at the check, yet need not have been tolerated: survival well below the control is almost never listed, so the zero probably covers shortened survival too. Counts of survivors are from the toxicity check (mostly the fifth day) where no day follows; animals may have died later. Schedules are NCI's codes, read here as Q, the interval in days (D) or hours (H), X, the number of doses. For survival time, the PubChem record calls one and a half times the control and up active, and a quarter to a half above the control has no call in these data; cut-offs in other NCI protocols can differ. Some entries were tested several times; the results are listed from low to high. Some T/C values carry the count of animals alive at the toxicity check (mostly the fifth day); without a count, all were alive then.

As for `NC(=S)Nc1ccc([N+](=O)[O-])cc1`, the survivor count runs as follows: (T/C endpoint: mean survival time, dose: 200.0 mg/kg/injection, schedule: Q04DX003 (ip), vehicle: other) 3 of 6; under setting [1], 0 of 6.

Consider `CCCCN1C(=O)N(c2ccc(OCC)cc2)C2N(CCCC)C1C(C)(C)C2(C)C` (configuration not stated), for which the survivor count by setting is: under setting [2], 0 of 3; under setting [3], 0 of 3.

As to `C/C(=N/O)c1cccc([N+](=O)[O-])c1`, the survivor count under setting [4] is given as 3 of 6.

Turning to `O=C1C(N2CCCC2)=C(N2CC2)C(=O)C(N2CCCC2)=C1N1CC1`, the T/C runs as follows: (T/C endpoint: mean survival time, dose: 1.56 mg/kg/injection, schedule: Q04DX003 (ip), vehicle: saline) 105, 109, 117, 122 % of control; (T/C endpoint: mean survival time, dose: 3.12 mg/kg/injection, schedule: Q04DX003 (ip), vehicle: saline) 114, 129, 135, 136 % of control; (T/C endpoint: mean survival time, dose: 6.25 mg/kg/injection, schedule: Q04DX003 (ip), vehicle: saline) 145, 146, 153, 170 % of control; under setting [5], 90, 93, 110 % of control. In addition, the survivor count under setting [5] is listed as 2 of 6.

As to `c1ccc2c(c1)Cc1c-2nc2ccccc2c1N1CCOCC1`, the T/C under setting [4] was 139 % of control.

With `CN(C)N=Nc1ccccc1`, the T/C (T/C endpoint: mean survival time, dose: 18.75 mg/kg/injection, schedule: Q01DX009 (ip), vehicle: Klucel (hydroxypropylcellulose) (HPC)) was 148 % of control. In addition, the survivor count by setting is: (T/C endpoint: mean survival time, dose: 150.0 mg/kg/injection, schedule: Q01DX009 (ip), vehicle: Klucel (hydroxypropylcellulose) (HPC)) 1 of 6; (T/C endpoint: mean survival time, dose: 300.0 mg/kg/injection, schedule: Q01DX009 (ip), vehicle: Klucel (hydroxypropylcellulose) (HPC)) 0 of 6.

Consider `COc1cc(NCCCCNC(C)C)c2ncccc2c1`, for which the survivor count runs as follows: (T/C endpoint: mean survival time, dose: 150.0 mg/kg/injection, schedule: Q01DX001 (ip), vehicle: saline) 0 of 6; (T/C endpoint: mean survival time, dose: 300.0 mg/kg/injection, schedule: Q01DX001 (ip), vehicle: saline) 0 of 6.

On to `Fc1ccc2c(c1)C(Br)c1ccccc1-2` (configuration not stated), for which the survivor count runs as follows: under setting [6], 2 of 6; under setting [7], 0 of 6; under setting [4], 0 of 6.

As for `N=C(N)c1ccc(/C=C/c2ccc(C(=N)N)cc2O)cc1`, the survivor count (T/C endpoint: mean survival time, dose: 100.0 mg/kg/injection, schedule: Q01DX009 (ip), vehicle: water) is on record as 0 of 6.

Regarding `CCC([NH-])(CC)C[NH-].[Cl][Pt+2][Cl]`, the T/C is 127 % of control (T/C endpoint: mean survival time, dose: 6.25 mg/kg/injection, schedule: Q04DX003 (ip), vehicle: saline with Tween-80); 135 % of control (T/C endpoint: mean survival time, dose: 12.5 mg/kg/injection, schedule: Q04DX003 (ip), vehicle: saline with Tween-80); 146 % of control under setting [5]. Moreover, the survivor count is, setting by setting: (T/C endpoint: mean survival time, dose: 25.0 mg/kg/injection, schedule: Q04DX003 (ip), vehicle: saline) 5 of 6; (T/C endpoint: mean survival time, dose: 50.0 mg/kg/injection, schedule: Q04DX003 (ip), vehicle: saline) 5 of 6; (T/C endpoint: mean survival time, dose: 100.0 mg/kg/injection, schedule: Q04DX003 (ip), vehicle: saline) 0 of 6; (T/C endpoint: mean survival time, dose: 200.0 mg/kg/injection, schedule: Q04DX003 (ip), vehicle: saline) 0 of 6.

Turning to `NC(CCC(=O)c1ccccn1)C(=O)O` (configuration not stated), the survivor count (T/C endpoint: mean survival time, dose: 400.0 mg/kg/injection, schedule: Q04DX003 (ip), vehicle: saline) is 0 of 6.

Consider `CCCCOc1ccc(Cl)cc1`, for which, under setting [3], the survivor count is recorded as 1 of 3.

Turning to `O=C(O)C1C2CCCCC2=C2CCCCC2C1C(=O)O` (configuration not stated), the survivor count under setting [4] was 0 of 6.

In the case of `CCOC(=O)COC(CC[P+](c1ccccc1)(c1ccccc1)c1ccccc1)(C(=O)c1ccccc1)c1ccccc1` (configuration not stated), the survivor count (T/C endpoint: mean survival time, dose: 10.0 mg/kg/injection, schedule: Q01DX001 (ip), vehicle: saline with Tween-80) is given as 2 of 6.

With `O=C(C=C(C(F)(F)F)C(F)(F)F)c1ccccc1Cl`, under setting [8], the survivor count is recorded as 0 of 6.

Take `Cc1ccc(-c2cc(O)cc(-c3ccc(C)cc3C)c2O)c(C)c1`: the survivor count reads like this: (T/C endpoint: mean survival time, dose: 100.0 mg/kg/injection, schedule: Q01DX001 (ip), vehicle: saline with Tween-80) 6 of 6; (T/C endpoint: mean survival time, dose: 200.0 mg/kg/injection, schedule: Q01DX001 (ip), vehicle: saline with Tween-80) 6 of 6.

`COC1(c2ccccc2)c2ccccc2C(OC)(c2ccccc2)c2cc(Cl)ccc21` (configuration not stated): the survivor count (T/C endpoint: mean survival time, dose: 400.0 mg/kg/injection, schedule: Q01DX001 (ip), vehicle: Klucel (hydroxypropylcellulose) (HPC)) is 3 of 3.

With `CC(=O)c1ccc(C(=O)CC(O)(C(F)(F)F)C(F)(F)F)cc1`, the survivor count under setting [1] is 3 of 6.

On to `CC1=C/C(O)CC(=O)Cc2nc(co2)C(=O)N2CCC=C2C(=O)OC(C(C)C)C(C)/C=C\C(=O)NC/C=C\1` (configuration not stated), for which, for the setting “T/C endpoint: median survival time, dose: 400.0 mg/kg/injection, schedule: Q01DX009 (ip), vehicle: Klucel (hydroxypropylcellulose) (HPC)”, the survivor count is 5 of 6.

For the compound `CC(/C=N/O)=N\O.CC(/C=N/O)=N\O.[Pd]`, the survivor count by setting is: under setting [9], 2 of 3; (T/C endpoint: mean survival time, dose: 6.25 mg/kg/injection, schedule: Q04DX002 (ip), vehicle: saline with Tween-80) 2 of 3; (T/C endpoint: mean survival time, dose: 12.5 mg/kg/injection, schedule: Q04DX002 (ip), vehicle: saline with Tween-80) 1 of 3; under setting [10], 0 of 3; under setting [11], 2 of 3; under setting [12], 0 of 3. Also, the survivor count was 0 of 3 under setting [2] and 0 of 3 under setting [3].

With `N#C/C(=C\c1c(O)ccc2ccccc12)c1ccc([N+](=O)[O-])cc1`, the T/C under setting [13] is 135 % of control, the T/C under setting [8] is 135 % of control and the T/C under setting [6] was 140 % of control [5 of 6 alive]. Besides, the survivor count is recorded as 3 of 6 under setting [7] and 3 of 6 under setting [4].

In the case of `CC(=O)C(C)OS(C)(=O)=O` (configuration not stated), the survivor count under setting [14] is listed as 6 of 6.

For the compound `Nc1[nH]c(=S)[nH]c(=O)c1N`, the survivor count by setting is: under setting [12], 1 of 3; under setting [2], 0 of 3; under setting [3], 0 of 3.

For `Cc1c(O)c2c(c(O)c1Cc1ccc(C#N)cc1)C(=O)c1ccccc1C2=O`, the survivor count under setting [15] is reported as 6 of 6 and the survivor count (T/C endpoint: mean survival time, dose: 400.0 mg/kg/injection, schedule: Q01DX009 (ip), vehicle: Klucel (hydroxypropylcellulose) (HPC)) is reported as 0 of 6.

As for `CC(=O)OC1CCC2(C)CCCC(O)C2(O)C1` (configuration not stated), the survivor count is 2 of 6 (T/C endpoint: mean survival time, dose: 200.0 mg/kg/injection, schedule: Q04DX003 (ip), vehicle: acetone) and 2 of 6 (T/C endpoint: mean survival time, dose: 400.0 mg/kg/injection, schedule: Q04DX003 (ip), vehicle: acetone).

With `O=C1NC(=O)C2C3C=CC(C3)C12` (configuration not stated), the survivor count under setting [12] is 1 of 3, the survivor count under setting [2] is given as 1 of 3 and the survivor count under setting [3] is recorded as 0 of 3.

Regarding `ClC1CCC(Cl)C2CCC3C(Cl)CCC1[S+]23` (configuration not stated), the survivor count reads like this: (T/C endpoint: mean survival time, dose: 25.0 mg/kg/injection, schedule: Q01DX009 (ip), vehicle: Klucel (hydroxypropylcellulose) (HPC)) 0 of 6; under setting [15], 0 of 6.

On to `NNC(=O)c1cccc(N)c1`, for which the survivor count runs as follows: (T/C endpoint: mean survival time, dose: 200.0 mg/kg/injection, schedule: Q04DX003 (ip), vehicle: saline with Tween-80) 0 of 6; under setting [14], 0 of 6.

Turning to `c1ccc(P(=N[P+](c2ccccc2)(c2ccccc2)c2ccccc2)(c2ccccc2)c2ccccc2)cc1`, the survivor count is recorded as 2 of 3 (T/C endpoint: mean survival time, dose: 3.0 mg/kg/injection, schedule: Q01DX009 (ip), vehicle: saline); 0 of 3 under setting [9]; 0 of 3 (T/C endpoint: mean survival time, dose: 12.5 mg/kg/injection, schedule: Q01DX009 (ip), vehicle: saline with Tween-80); 0 of 3 under setting [13]; 1 of 3 under setting [10]; 0 of 3 under setting [8]. Further, under setting [11], the survivor count was 1 of 3.
